In assay [1] the target is T1, VPS18 (human (endogenous in HEK293)) (UniProt Q9P253).
T1 sequence: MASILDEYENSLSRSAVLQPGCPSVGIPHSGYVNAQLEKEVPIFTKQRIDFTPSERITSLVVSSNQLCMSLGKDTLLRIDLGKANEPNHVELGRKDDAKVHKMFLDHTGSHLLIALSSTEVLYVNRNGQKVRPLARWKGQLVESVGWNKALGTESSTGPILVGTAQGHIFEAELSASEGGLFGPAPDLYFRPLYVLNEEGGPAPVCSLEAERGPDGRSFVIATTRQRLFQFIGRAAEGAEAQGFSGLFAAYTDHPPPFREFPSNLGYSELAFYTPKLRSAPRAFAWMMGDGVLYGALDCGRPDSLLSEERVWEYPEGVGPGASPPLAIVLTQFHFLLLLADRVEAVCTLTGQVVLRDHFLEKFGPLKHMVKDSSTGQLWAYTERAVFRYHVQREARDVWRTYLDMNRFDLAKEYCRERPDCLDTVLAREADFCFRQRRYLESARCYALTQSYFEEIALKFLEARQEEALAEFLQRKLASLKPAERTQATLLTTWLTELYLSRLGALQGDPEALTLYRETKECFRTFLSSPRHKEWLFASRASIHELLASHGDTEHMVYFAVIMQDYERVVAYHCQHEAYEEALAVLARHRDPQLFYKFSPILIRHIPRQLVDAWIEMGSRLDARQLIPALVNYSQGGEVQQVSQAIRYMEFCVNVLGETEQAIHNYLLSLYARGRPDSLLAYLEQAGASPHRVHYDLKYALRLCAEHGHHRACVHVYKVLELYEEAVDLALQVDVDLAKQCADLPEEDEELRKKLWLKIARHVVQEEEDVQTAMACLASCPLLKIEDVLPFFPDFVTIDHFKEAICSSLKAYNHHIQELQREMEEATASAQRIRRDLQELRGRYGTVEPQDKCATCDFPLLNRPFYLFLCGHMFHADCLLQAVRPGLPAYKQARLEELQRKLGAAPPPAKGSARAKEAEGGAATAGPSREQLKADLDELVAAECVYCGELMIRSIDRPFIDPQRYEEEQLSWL
Description: co-IP; anti-FLAG beads on total lysates of HEK293 cells stably transfected with a FLAG-tagged specific subunit, with or without transient overexpression of the counterpart subunit (control: pCMV); endogenous VPS11 and VPS18 detected by western blot, densitometry with ImageJ; lysis buffer 50 mM TRIS-HCl pH 7.5, 150 mM NaCl, 1% Triton X-100, 5 mM EDTA; 1.5 h at 4 °C.

Assay [2] addresses T2, VPS11 (human (endogenous in HEK293)) (UniProt Q9H270).
T2 sequence: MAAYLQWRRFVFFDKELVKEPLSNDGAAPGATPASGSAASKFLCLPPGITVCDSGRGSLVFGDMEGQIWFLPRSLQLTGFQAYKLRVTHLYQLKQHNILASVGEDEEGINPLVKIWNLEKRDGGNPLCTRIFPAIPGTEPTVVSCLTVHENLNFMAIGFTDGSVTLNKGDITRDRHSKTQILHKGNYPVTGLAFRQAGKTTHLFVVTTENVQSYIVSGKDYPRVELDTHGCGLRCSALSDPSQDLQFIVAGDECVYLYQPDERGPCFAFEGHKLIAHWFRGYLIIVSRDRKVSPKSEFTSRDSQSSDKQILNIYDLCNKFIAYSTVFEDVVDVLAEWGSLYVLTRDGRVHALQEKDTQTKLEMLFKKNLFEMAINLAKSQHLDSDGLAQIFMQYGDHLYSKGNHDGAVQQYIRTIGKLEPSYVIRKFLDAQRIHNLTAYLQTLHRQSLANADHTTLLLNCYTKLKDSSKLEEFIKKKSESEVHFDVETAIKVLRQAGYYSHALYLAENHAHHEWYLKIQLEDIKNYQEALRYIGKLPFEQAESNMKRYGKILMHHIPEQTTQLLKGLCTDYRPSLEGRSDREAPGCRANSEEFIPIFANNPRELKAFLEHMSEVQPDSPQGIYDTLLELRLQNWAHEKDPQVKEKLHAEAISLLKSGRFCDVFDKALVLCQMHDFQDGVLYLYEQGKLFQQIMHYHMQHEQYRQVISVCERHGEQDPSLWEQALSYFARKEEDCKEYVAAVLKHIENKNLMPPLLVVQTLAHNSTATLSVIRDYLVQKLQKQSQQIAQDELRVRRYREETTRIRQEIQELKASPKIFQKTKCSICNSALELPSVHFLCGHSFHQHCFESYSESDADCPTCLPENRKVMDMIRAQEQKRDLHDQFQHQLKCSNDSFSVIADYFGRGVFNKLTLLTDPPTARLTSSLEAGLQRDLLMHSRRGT
The assay is described as above.

No constants are given. Whether binding was seen depends on the method and setting. Binding seen in cells or lysates may run through a third protein. Some entries that bind do so weakly or less than the wild type. Where a sequence is shown, tags or fusion partners need not be part of it.

B1: VPS8 (untagged) (protein, UniProt Q8N3P4 1-1428)
chain: MENEPDHENVEQSLCAKTSEEELNKSFNLEASLSKFSYIDMDKELEFKNDLIDDKEFDIPQVDTPPTLESILNETDDEDESFILEDPTLLNIDTIDSHSYDTSSVASSDSGDRTNLKRKKKLPDSFSLHGSVMRHSLLKGISAQIVSAADKVDAGLPTAIAVSSLIAVGTSHGLALIFGKDQNQALRLCLGSTSVGGQYGAISALSINNDCSRLLCGFAKGQITMWDLASGKLLRSITDAHPPGTAILHIKFTDDPTLAICNDSGGSVFELTFKRVMGVRTCESRCLFSGSKGEVCCIEPLHSKPELKDHPITQFSLLAMASLTKILVIGLKPSLKVWMTFPYGRMDPSSVPLLAWHFVAVQNYVNPMLAFCRGDVVHFLLVKRDESGAIHVTKQKHLHLYYDLINFTWINSRTVVLLDSVEKLHVIDRQTQEELETVEISEVQLVYNSSHFKSLATGGNVSQALALVGEKACYQSISSYGGQIFYLGTKSVYVMMLRSWRERVDHLLKQDCLTEALALAWSFHEGKAKAVVGLSGDASKRKAIVADRMVEILFHYADRALKKCPDQGKIQVMEQHFQDMVPVIVDYCLLLQRKDLLFSQMYDKLSENSVAKGVFLECLEPYILSDKLVGITPQVMKDLIVHFQDKKLMENVEALIVHMDITSLDIQQVVLMCWENRLYDAMIYVYNRGMNEFISPMEKLFRVIAPPLNAGKTLTDEQVVMGNKLLVYISCCLAGRAYPLGDIPEDLVPLVKNQVFEFLIRLHSAEASPEEEIYPYIRTLLHFDTREFLNVLALTFEDFKNDKQAVEYQQRIVDILLKVMVENSDFTPSQVGCLFTFLARQLAKPDNTLFVNRTLFDQVLEFLCSPDDDSRHSERQQVLLELLQAGGIVQFEESRLIRMAEKAEFYQICEFMYEREHQYDKIIDCYLRDPLREEEVFNYIHNILSIPGHSAEEKQSVWQKAMDHIEELVSLKPCKAAELVATHFSGHIETVIKKLQNQVLLFKFLRSLLDPREGIHVNQELLQISPCITEQFIELLCQFNPTQVIETLQVLECYRLEETIQITQKYQLHEVTAYLLEKKGDIHGAFLIMLERLQSKLQEVTHQGENTKEDPSLKDVEDTMVETIALCQRNSHNLNQQQREALWFPLLEAMMAPQKLSSSAIPHLHSEALKSLTMQVLNSMAAFIALPSILQRILQDPVYGKGKLGEIQGLILGMLDTFNYEQTLLETTTSLLNQDLHWSLCNLRASVTRGLNPKQDYCSICLQQYKRRQEMADEIIVFSCGHLYHSFCLQNKECTVEFEGQTRWTCYKCSSSNKVGKLSENSSEIKKGRITPSQVKMSPSYHQSKGDPTAKKGTSEPVLDPQQIQAFDQLCRLYRGSSRLALLTELSQNRSSESYRPFSGSQSAPAFNSIFQNENFQLQLIPPPVTED
For the molecule B1, the binding entry in assay [1] and in assay [2] was “binds” each time.

Source of the values: paper PMC11066007, “CORVET-specific subunit levels determine the balance between HOPS/CORVET endosomal tethering complexes” (Scientific Reports, 2024).
